Reference: publication PMC10418535
Results are given in words; binding and its absence hold for the method and conditions named. Some binding calls cover weakened binding; strength is not graded here. Sequences can lack the tags named with a protein.

Molecular target: T1, SBP-Halotag-Crb3 (UniProt Q9BUF7)
T1 sequence: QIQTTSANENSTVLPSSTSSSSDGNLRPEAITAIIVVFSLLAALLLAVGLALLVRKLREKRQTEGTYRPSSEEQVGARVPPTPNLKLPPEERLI
Test: FRAP (fluorescence recovery after photobleaching); live confluent Eph4 cells at 37°C, 5% CO2; biotin withheld so that SBP-Halo-Crb3 is held at the ER by Streptavidin-KDEL; recovery of mApple-Pals1 compared with and without Crb3 retained at the ER, and with the recovery of SBP-Halo-Crb3

B1: mApple-tagged Pals1 (protein, UniProt Q9JLB2 1-675)
chain: MTTSYMNGHVTEESDSGIKNLDLASPEEYPKHREMAVDCPGDLGTRMMPVRRSAQLERIRQQQEDMRRRREEEGKKQELDLNSSMRLKKLAQIPPKTGIDNPIFDTEEGIVLESPHYAVNILDVEDLFSSLKHIQHTLVDSQSQEDISLLLQLVQNRDFQNAFKIHNAVTVHMSKASPPFPLIANVQDLVQEVQTVLKPVHQKEGQELTALLNAPHIQALLLAHDKVAEQEMQLEPITDERVYESIGHYGGETVKIVRIEKARDIPLGATVRNEMDSVIISRIVKGGAAEKSGLLHEGDEVLEINGIEIRGKDVNEVFDLLSDMHGTLTFVLIPSQQIKPPPAKETVIHVKAHFDYDPSDDPYVPCRELGLSFQKGDILHVISQEDPNWWQAYREGDEDNQPLAGLVPGKSFQQQREAMKQTIEEDKEPEKSGKLWCAKKNKKKRKKVLYNANKNDDYDNEEILTYEEMSLYHQPANRKRPIILIGPQNCGQNELRQRLMNKEKDRFASAVPHTTRNRRDHEVAGRDYHFVSRQAFEADIAAGKFIEHGEFEKNLYGTSIDSVRQVINSGKICLLSLRTQSLKTLRNSDLKPYIIFIAPPSQERLRALLAKEGKNPKPEELREIIEKTREMEQNNGHYFDTAIVNSDLDKAYQELLRLINKLDTEPQWVPSTWLR
In the case of B1, the binding is reported as “binds”.
